These are yes or no findings as the source states them, for the method shown. Some entries that bind do so weakly or less than the wild type. Sequences can lack the tags named with a protein.

Amino acid sequences for entries named in this document (tags omitted). Residues count along the entry.
UniProt Q13219, residues 82-1627: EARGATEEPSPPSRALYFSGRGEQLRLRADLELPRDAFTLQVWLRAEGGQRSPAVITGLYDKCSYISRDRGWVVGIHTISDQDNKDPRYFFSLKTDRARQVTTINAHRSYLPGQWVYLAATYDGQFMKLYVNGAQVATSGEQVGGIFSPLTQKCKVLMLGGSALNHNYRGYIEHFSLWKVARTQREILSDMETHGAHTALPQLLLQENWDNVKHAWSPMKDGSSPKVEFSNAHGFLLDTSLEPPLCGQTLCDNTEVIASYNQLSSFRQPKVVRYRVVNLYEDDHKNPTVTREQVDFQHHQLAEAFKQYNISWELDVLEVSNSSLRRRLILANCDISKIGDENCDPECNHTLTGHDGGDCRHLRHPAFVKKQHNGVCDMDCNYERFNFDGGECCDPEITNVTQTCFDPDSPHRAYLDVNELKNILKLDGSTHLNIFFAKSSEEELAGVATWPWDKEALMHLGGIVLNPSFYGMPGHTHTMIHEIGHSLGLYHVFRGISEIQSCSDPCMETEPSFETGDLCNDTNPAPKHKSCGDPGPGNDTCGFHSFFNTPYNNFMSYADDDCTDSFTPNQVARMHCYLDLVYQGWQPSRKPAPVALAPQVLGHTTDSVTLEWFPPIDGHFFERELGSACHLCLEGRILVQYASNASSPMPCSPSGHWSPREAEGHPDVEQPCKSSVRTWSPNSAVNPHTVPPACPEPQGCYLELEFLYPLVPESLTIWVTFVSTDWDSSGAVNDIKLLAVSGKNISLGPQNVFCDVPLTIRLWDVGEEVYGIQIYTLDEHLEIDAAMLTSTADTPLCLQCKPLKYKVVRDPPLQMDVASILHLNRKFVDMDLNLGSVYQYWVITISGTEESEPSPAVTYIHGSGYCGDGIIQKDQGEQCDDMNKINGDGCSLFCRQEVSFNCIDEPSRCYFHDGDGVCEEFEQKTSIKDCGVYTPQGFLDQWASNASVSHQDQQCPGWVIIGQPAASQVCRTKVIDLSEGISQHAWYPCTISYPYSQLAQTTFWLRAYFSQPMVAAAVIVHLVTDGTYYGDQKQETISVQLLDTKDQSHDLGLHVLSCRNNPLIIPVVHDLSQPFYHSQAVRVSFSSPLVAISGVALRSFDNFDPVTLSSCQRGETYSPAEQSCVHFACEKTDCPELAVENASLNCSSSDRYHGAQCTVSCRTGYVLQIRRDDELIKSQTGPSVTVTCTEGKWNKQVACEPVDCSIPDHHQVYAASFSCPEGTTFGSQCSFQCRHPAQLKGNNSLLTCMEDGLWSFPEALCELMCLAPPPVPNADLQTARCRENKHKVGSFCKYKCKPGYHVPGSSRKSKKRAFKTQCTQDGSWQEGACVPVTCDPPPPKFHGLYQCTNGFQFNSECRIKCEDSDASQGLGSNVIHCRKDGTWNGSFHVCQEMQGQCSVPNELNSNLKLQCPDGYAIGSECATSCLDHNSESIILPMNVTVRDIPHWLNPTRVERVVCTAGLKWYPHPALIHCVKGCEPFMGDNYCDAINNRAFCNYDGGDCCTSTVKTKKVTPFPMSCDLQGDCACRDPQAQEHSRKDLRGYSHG

The target in experiment [1] is recombinant wild-type PAPP-A, MBP-His10 tagged (human) (UniProt Q13219). Description: gel of covalent complexes (lanes of Supplementary Fig. S10b, c); PAPP-A WT or C1130S alone or with proMBP or STC2; kind of gel and samples not shown.
The target in experiment [2] is proform of eosinophil major basic protein (proMBP), endogenous, from pregnant human plasma (human (endogenous in pregnant plasma)) (UniProt P13727). Description: cryo-EM structure; PAPP-A·proMBP complex purified from pregnant human plasma, 0.2 mg/mL, in PBS pH 7.4; 2:2 map with C2 symmetry and half map after symmetry expansion; both purified.

B1: recombinant proMBP (modulator protein) (protein, UniProt P13727 17-222)
chain: LHLRSETSTFETPLGAKTLPEDEETPEQEMEETPCRELEEEEEWGSGSEDASKKDGAVESISVPDMVDKNLTCPEEEDTVKVVGIPGCQTCRYLLVRSLQTFSQAWFTCRRCYRGNLVSIHNFNINYRIQCSVSALNQGQVWIGGRITGSGRCRRFQWVDGSRWNFAYWAAHQPWSRGGHCVALCTRGGHWRRAHCLRRLPFICSY
With B1, in experiment [1], the binding result is “binds”.

B2: proform of eosinophil major basic protein (proMBP), endogenous, from pregnant human plasma (protein, UniProt P13727 17-222)
chain: LHLRSETSTFETPLGAKTLPEDEETPEQEMEETPCRELEEEEEWGSGSEDASKKDGAVESISVPDMVDKNLTCPEEEDTVKVVGIPGCQTCRYLLVRSLQTFSQAWFTCRRCYRGNLVSIHNFNINYRIQCSVSALNQGQVWIGGRITGSGRCRRFQWVDGSRWNFAYWAAHQPWSRGGHCVALCTRGGHWRRAHCLRRLPFICSY
B2: the binding result in experiment [2] is “no binding”.

Values taken from article PMC9780223.
